The record followed here is PMC12040169 (PLOS Biology, 2025).

Molecules are shown by their SMILES. The list shows a part of the results.

The test system of the assay is T1, CTL2-GFP (C. trachomatis L2/434/Bu, GFP-expressing).
T1 construct: L2/434/Bu, GFP-expressing
Further details: species or system HeLa; Intracellular C. trachomatis growth in HeLa cells, bulk GFP fluorescence relative to DMSO. The note with it: bulk GFP, single well; 28.5 h, 10 µM; inhibitor.
With `COc1ccccc1C(=O)Nc1sc2c(c1C(=O)NCc1ccco1)CCCC2` [CBK265105], the “% of control remaining” value stood at 161.343%.

As for `CC(C)(C)c1ccc(Oc2ccc(NC(=O)CCCC(=O)O)cc2)cc1` [CBK264339], the “% of control remaining” value amounted to 120.876%.

Regarding `Cc1c(C(=O)N(C)CC(F)(F)F)nnn1-c1ccc(F)cc1` [CBK282214], the “% of control remaining” value came out at 122.227%.

For `Cc1ccc(Cc2cnc(NC(=O)C3CNC(=O)N3)s2)cc1F` (stereo not shown) [CBK305919], the “% of control remaining” value is 96.5441%.

`CCCCn1c(NCc2nc3ccccc3n2C)nc2ccccc21` [CBK264177]: the “% of control remaining” value turned out to be 100%.

As to `O=C(CCN1CCOCC1)Nc1ccc(Cl)cc1` [CBK263820], the “% of control remaining” value was 115.321%.

For the molecule `N/C(=N\OC(=O)COc1cccc2ccccc12)c1ccc(Cl)cc1` [CBK263004], the “% of control remaining” value turned out to be 109.914%.

For `O=C1NN=C(O)C1Cc1ccccc1` (stereo not shown) [CBK067758], the “% of control remaining” value is given as 104.177%.

In the case of `CSc1cccc(-c2cnccc2-n2ccnc2)c1` [CBK177155], the “% of control remaining” value amounted to 95.0934%.

Turning to `CC(=O)NC1(c2ccccc2)CCN(CC(O)c2ccccc2)CC1` (stereo not shown) [CBK284819], the “% of control remaining” value is 101.309%.

In the case of `CCOC(=O)C1C2CCC3(CC(=O)c4cc(Cl)ccc4O3)C21` (stereo not shown) [CBK284858], the “% of control remaining” value amounted to 105.463%.

Regarding `O=C(Nc1ccc2n(c1=O)C[C@H]1C[C@@H]2CN(C(=O)Cc2cccs2)C1)c1ccccc1` [CBK288709], the “% of control remaining” value is 107.433%.

Take `Cc1c(-c2cc(C(=O)NC(C)C3CC4CCC3C4)on2)cnn1C` (stereo not shown) [CBK281651]: the “% of control remaining” value amounted to 102.671%.

Take `COc1cc(-c2cnc3[nH]c(=O)n([C@@H](CO)C(C)C)c3n2)cc(OC)c1OC` [CBK064471]: the “% of control remaining” value came to 173.15%.

On to `CC(C)(C)c1ccc(S(=O)(=O)N2CCCC[C@H]2COC(=O)COCC(=O)O)cc1` [CBK200064], for which the “% of control remaining” value turned out to be 116.948%.

In the case of `O=c1[nH]nc(CSCc2ccccc2Cl)[nH]1` [CBK267427], the “% of control remaining” value turned out to be 128.883%.

For the molecule `CC(=O)c1ccc(-c2cc(C(=O)NCc3cccc(C(F)(F)F)c3)cnc2-c2ccccc2)s1` [CBK036641], the “% of control remaining” value came out at 164.359%.

In the case of `O=C(NC(=S)Nc1ccc(N2CCN(Cc3ccccc3F)CC2)cc1)c1ccco1` [CBK268946], the “% of control remaining” value is 165.525%.

For `Cc1cc(COc2nc3ccccc3nc2N2CCCC2)no1` [CBK115768], the “% of control remaining” value is 100%.

As for `CC(C)[C@@H](CO)Nc1cncc(-c2ccc(O)cc2)n1` [CBK066038], the “% of control remaining” value stood at 99.6471%.

With `Cc1nc(CN2CCC3(CC2)CN(C(=O)C(C)C)c2ccccc23)cs1` [CBK131476], the “% of control remaining” value came out at 110.823%.

Regarding `CC1c2ccsc2CCN1C(=O)c1ccnn1C(C)C` (stereo not shown) [CBK282079], the “% of control remaining” value is 109.526%.
